Reference: paper PMC10755771
These are yes or no findings as the source states them, for the method shown. A result given as binding can be weak or reduced; the word gives no strength.

Sequences of proteins named here, by UniProt entry; tags and fusion partners are left off. A change or cut given only in a name is not applied to a line headed by its entry.
UniProt Q92783: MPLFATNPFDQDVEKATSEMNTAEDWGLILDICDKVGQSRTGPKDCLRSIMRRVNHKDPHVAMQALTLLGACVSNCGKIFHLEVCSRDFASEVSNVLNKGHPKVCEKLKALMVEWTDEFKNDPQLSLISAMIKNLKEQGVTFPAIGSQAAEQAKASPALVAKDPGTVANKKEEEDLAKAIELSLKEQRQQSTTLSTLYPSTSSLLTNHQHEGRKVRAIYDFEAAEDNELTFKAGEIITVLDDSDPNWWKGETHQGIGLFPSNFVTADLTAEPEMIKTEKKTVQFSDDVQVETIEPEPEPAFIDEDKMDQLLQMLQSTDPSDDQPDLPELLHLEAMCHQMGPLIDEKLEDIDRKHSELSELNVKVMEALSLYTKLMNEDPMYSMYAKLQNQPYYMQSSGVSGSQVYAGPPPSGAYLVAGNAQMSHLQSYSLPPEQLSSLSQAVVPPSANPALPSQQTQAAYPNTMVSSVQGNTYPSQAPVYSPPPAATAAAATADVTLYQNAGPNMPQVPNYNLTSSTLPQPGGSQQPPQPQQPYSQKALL
UniProt P49407: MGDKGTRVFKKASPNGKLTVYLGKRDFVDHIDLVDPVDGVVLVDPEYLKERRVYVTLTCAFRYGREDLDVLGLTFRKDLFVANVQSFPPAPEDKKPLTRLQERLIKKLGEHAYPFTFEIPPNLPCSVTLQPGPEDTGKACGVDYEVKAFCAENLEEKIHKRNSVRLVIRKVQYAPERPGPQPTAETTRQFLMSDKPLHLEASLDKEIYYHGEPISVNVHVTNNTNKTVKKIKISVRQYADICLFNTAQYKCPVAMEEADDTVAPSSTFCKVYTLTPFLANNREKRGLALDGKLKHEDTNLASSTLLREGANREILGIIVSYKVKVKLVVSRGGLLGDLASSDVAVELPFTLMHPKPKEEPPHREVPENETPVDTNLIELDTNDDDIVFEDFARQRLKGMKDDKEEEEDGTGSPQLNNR

Target: STAM1-His K136R (UniProt Q92783)
Test: pull-down; purified βarr1 (0.1 μM) incubated with WT or K136R STAM1-His (0.3 μM in the methods, 3 μM in the legend) in TBS (20 mM Tris-HCl pH 7.5, 150 mM NaCl) for 20 min at 37 °C; complexes isolated on TALON cobalt resin, 4 °C 1 h; eluted with 250 mM imidazole; immunoblotting; both purified

binding: binds
Substance: βarrestin1 (untagged, wild type) (from UniProt P49407 1-418)
